Laboratory results: PubChem BioAssay AID743121 (NCATS, 2013)
The deposit covers about 26,000 reagents; this is a random part of them. 167 of all reagents (0.63%) count as active. 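Calls are per gene from RSA p-values that are not deposited; an individual active-marked siRNA can sensitise only weakly.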 The numbers tell different reagents against one gene apart. Not all columns of the deposit are shown.

Screen: 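Knock-downs that sensitise breast cancer cells to camptothecin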 (primary screen)
System: MDA-MB-231 cells, a human breast cancer line
Knock-down reagent: single siRNA against human genes, 20 nM siRNA (0.8 pmol per well)
Time to read-out: 120 h (drug added 48 h after transfection, read 72 h later)
Challenge: camptothecin 20 nM (about EC30) for 72 h; vehicle 0.1% DMSO in parallel plates
Measurement: 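CellTiter-Glo ATP signal, scaled to control siRNA as percent viability; sensitisation given as log2 of untreated divided by camptothecin-treated viability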
Scale: log2 vehicle/camptothecin viability: higher = stronger sensitisation to camptothecin
Call rule: 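Active genes have an RSA gene-level p-value below 0.001, computed from the ratios of their separate siRNAs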

log2 vehicle/camptothecin viability, by gene knocked down and reagent
DEDD2 (death effector domain containing 2): #1 -0.289 inactive; #2 -0.0162 inactive; #3 0.0255 inactive; #4 0.134 inactive
TNFSF15 (TNF superfamily member 15): #1 -0.207 inactive; #2 -0.0673 inactive; #3 -0.213 inactive; #4 -0.117 inactive
BCL2L1 (BCL2 like 1): #1 2.12 active; #2 0.369 active; #3 1.62 active
PECAM1 (platelet and endothelial cell adhesion molecule 1): #1 0.185 inactive; #2 0.016 inactive; #3 -0.0395 inactive; #4 0.376 inactive
HTR6 (5-hydroxytryptamine receptor 6): #1 -0.587 inactive; #2 0.0223 inactive; #3 0.868 inactive; #4 -0.16 inactive
GRIK2 (glutamate ionotropic receptor kainate type subunit 2): #1 -0.0713 inactive; #2 -0.115 inactive; #3 -0.513 inactive
UBQLN4 (ubiquilin 4): #1 -0.431 inactive; #2 0.92 inactive; #3 -0.622 inactive; #4 -0.182 inactive
ALDH2 (aldehyde dehydrogenase 2 family member): #1 1.15 inactive; #2 -0.0726 inactive; #3 0.119 inactive; #4 -0.0576 inactive
CNOT4 (CCR4-NOT transcription complex subunit 4): #1 0.293 inactive; #2 0.0825 inactive; #3 0.262 inactive; #4 -0.0763 inactive
DDB2 (damage specific DNA binding protein 2): #1 -0.0227 inactive; #2 -0.0818 inactive; #3 -0.132 inactive; #4 0.00832 inactive
CD33 (CD33 molecule): #1 -0.465 inactive; #2 0.815 inactive; #3 0.395 inactive; #4 -0.595 inactive
FMO1 (flavin containing dimethylaniline monoxygenase 1): #1 0.364 inactive; #2 -0.263 inactive; #3 0.0434 inactive; #4 -0.164 inactive
